Values of other authors as cited in patent US10739353B2, “Suppression of cytokine release and cytokine storm” (SignPath Pharma Inc., priority 2014, dated 2020).

Conditions: mice, cited from earlier work

CC(C)c1c(C(=O)Nc2ccccc2)c(-c2ccccc2)c(-c2ccc(F)cc2)n1CC[C@@H](O)C[C@@H](O)CC(=O)O [Atorvastatin]
brain damage / neurological outcome after TBI: Hippocampal degeneration and functional neurological deficits were reduced
brain cytokine levels after TBI (cytokines named in value): lower both IL-6 and TNF-α
